In PubChem BioAssay AID2685 (National Center for Advancing Translational Sciences (NCATS), 2010) one finds cell number change and AC50 data, which are given here for 59 molecules.

Each structure is given as a SMILES string. Some of the results follow. Further columns of the screen follow, without active or inactive calls. The list favours compounds with an active or inconclusive main result. Potencies come from curve fits of mixed quality, noted in brackets.

The assay can be described thus: qHTS Assay for Lipid Storage Modulators in Drosophila S3 Cells.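 As to cell number change: cells counted by Cell Tracker Red CMTPX staining in the red channel.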 As to conditions: BODIPY lipid droplet fluorescence, 18-24 h; for cell number change: measured here: cell count max response, cells fed with added oleic acid. The gist of the method: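 Laser-scanning cytometry quantifies lipid droplet accumulation (500–530 nm total intensity; droplet/cell object ratio) in oleic acid-fed (400 uM added) Drosophila S3 cells treated with a concentration series. 20 uM Triacsin C defined 100% inhibition.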
(Quantitative high-throughput screening tests each substance at several concentrations.)

[1] abbreviates: measured here: cell number channel AC50, cells fed with added oleic acid.
[2] abbreviates: measured here: lipid fluorescence (Fed channel) AC50, cells fed with added oleic acid.

For the molecule `CCOC(=O)NC(=O)/C(C#N)=N/Nc1ccc(F)cc1`, the cell number change is -65.6%. Under setting [1], the half-maximal activity concentration (AC50) (in general, the concentration at which the activity in the assay is half-maximal) was 25.9 µM [falling, partial curve]. Also, the half-maximal activity concentration (AC50) under setting [2] was 16.4 µM [falling, partial curve]. Take `COC(=O)c1cc(NC(=O)c2cc(C(C)(C)C)nn2Cc2cccc(C)c2)ccc1N1CCOCC1`: the cell number change was -31.1%. Further, the AC50 under setting [1] was 25.9 µM [falling, single point]. Besides, the AC50 under setting [2] is 23.1 µM [falling, single point]. In the case of `COc1ccc(-c2nnn(CC(=O)Nc3ccc4c(c3)OCCO4)n2)cc1OC`, the cell number change turned out to be 3.16%. On to `COc1ccc(Oc2nnc(-c3ccccc3)cc2C#N)cc1`, for which the cell number change was found to be 17.6%. Further, under setting [2], the AC50 was 1.64 µM [rising, partial curve].

For `COCCn1c(Cc2ccccc2)nnc1SCC(=O)NC(C)(C)C`, the cell number change was -14.5%. Also, the AC50 under setting [2] is 0.0326 µM [falling, full curve, poor fit]. On to `CC(=O)N1CCC(C(=O)c2ccc(Cl)cc2)CC1`, for which the cell number change is -3.98%. For `COc1ccc(NS(=O)(=O)c2ccc3nc(COc4ccc5ccccc5c4)[nH]c3c2)cc1`, under setting [2], the AC50 is 0.326 µM [falling, full curve, poor fit].

Regarding `COCC(C)n1c(SCc2ccc(C(=O)OC)o2)nc2ccccc2c1=O` (stereo not given), the cell number change amounted to 16.7%. Besides, the half-maximal activity concentration (AC50) under setting [2] is 3.66 µM [rising, single point]. Turning to `Cc1onc(-c2ccccc2)c1C(=O)N1CCN(S(=O)(=O)c2ccccc2Br)CC1`, the cell number change turned out to be 14.5%. Moreover, the AC50 under setting [2] was 0.731 µM [rising, full curve, poor fit].

With `CCOC(=O)NC(Nc1nnc(C)s1)(C(=O)OCC)C(F)(F)F` (stereo not given), the cell number change is -11.3%. Turning to `CCOc1ccc(/C=N/NC(=O)C2CC2)cc1OC`, the cell number change was determined as 15.8%. In addition, the AC50 under setting [1] is 0.146 µM [rising, full curve, poor fit]. Under setting [2], the AC50 was 6.51 µM [rising, single point]. `CCCc1ccc2oc(C(=O)N(C)CCn3ccnc3C)c(C)c2c1`: the cell number change came out at 13.7%. Further, the half-maximal activity concentration (AC50) under setting [2] was 0.146 µM [rising, full curve]. Consider `CCCCCCOC(=O)C1=C(C)NC(=O)NC1c1ccc2c(c1)OCO2` (stereo not given), for which the cell number change is -19.2%. On to `Cc1cc(NS(=O)(=O)c2ccc(NC(=O)COc3cc(C)c(Cl)c(C)c3)cc2)no1`, for which the cell number change was -2.4%. `C/C(O)=c1/ccc2cccc3nc(C)nc1c23`: the cell number change was 2.22%. The concentration at half-maximal activity (AC50) under setting [2] was 0.82 µM [falling, full curve, poor fit]. Regarding `CCc1ccccc1NC(=O)CSC1=C(C#N)C(c2ccc(O)c(OC)c2)C2=C(CCCC2=O)N1` (stereo not given), the cell number change was -27.9%. Besides, the AC50 under setting [2] was 1.46 µM [rising, partial curve]. For `Cn1nnnc1SCC(=O)Nc1cc(C(F)(F)F)ccc1N1CCOCC1`, the cell number change stood at 39.6%. Under setting [1], the AC50 was 0.00461 µM [rising, full curve, poor fit]. On to `O=C(CSc1nnc(-c2n[nH]c3ccccc23)n1-c1ccccc1)Nc1ccccc1Cl`, for which the cell number change was determined as 18.2%. The half-maximal activity concentration (AC50) under setting [2] is 2.59 µM [rising, full curve]. For `COc1ccc(-c2nc(CSCC(=O)NCc3ccc4c(c3)OCO4)c(C)o2)cc1`, the cell number change came out at 61.8%. Besides, under setting [1], the AC50 was 1.16 µM [rising, partial curve]. In addition, the AC50 under setting [2] is 1.3 µM [rising, full curve].

As for `CC(=O)N1c2ccccc2C(C)CC12CCCCC2` (stereo not given), the cell number change was -41.8%. Further, the AC50 under setting [1] is 25.9 µM [falling, partial curve, poor fit]. The concentration at half-maximal activity (AC50) under setting [2] was 29.1 µM [falling, single point].

Consider `COc1ccccc1NC(=O)COc1ccc(CO)cc1Cl`, for which the cell number change was -19.5%. Moreover, the AC50 under setting [1] is 0.103 µM [falling, full curve, poor fit]. Besides, the half-maximal activity concentration (AC50) under setting [2] is 3.26 µM [falling, single point]. Consider `CCN(CCCNC(=O)CNC(=O)c1nn(-c2ccc(OC)cc2)c(=O)c2ccccc12)c1cccc(C)c1`, for which the cell number change was -3.6%. The half-maximal activity concentration (AC50) under setting [2] was 0.231 µM [falling, full curve, poor fit]. For the molecule `CCCCCNC(=O)c1cc(S(=O)(=O)N2CCCCC2)ccc1F`, the cell number change is -1.16%. The concentration at half-maximal activity (AC50) under setting [2] was 0.0651 µM [falling, full curve, poor fit].

On to `Brc1ccc(C[n+]2ccccc2)cc1`, for which the concentration at half-maximal activity (AC50) under setting [2] was 29.1 µM [rising, single point]. Turning to `COCCNC(=O)CN(C(=O)Cn1nnc2ccccc21)c1ccc(C)cc1`, the cell number change came out at 14.9%. The concentration at half-maximal activity (AC50) under setting [2] was 0.184 µM [rising, full curve, poor fit]. Regarding `Cc1ccc(NC(=O)COC(=O)CC2CCCC2)cc1Cl`, the cell number change was -52%. Besides, the concentration at half-maximal activity (AC50) under setting [1] was 23.1 µM [falling, single point]. In addition, under setting [2], the concentration at half-maximal activity (AC50) was 29.1 µM [falling, single point]. On to `Cc1ccc(-c2cc(C(=O)NCc3ccc4c(c3)OCO4)no2)cc1`, for which the concentration at half-maximal activity (AC50) under setting [2] was 2.31 µM [falling, partial curve]. For the molecule `Cc1ccc(C(C)C)cc1OCC(=O)NNC(=O)Nc1ccccc1`, the cell number change was -37.4%. The AC50 under setting [1] is 29.1 µM [falling, single point]. For the molecule `O=C1CC(N2CCC(c3nc4ccccc4s3)CC2)C(=O)N1Cc1ccccc1` (stereo not given), the cell number change stood at 59.2%. In addition, under setting [1], the concentration at half-maximal activity (AC50) was 1.84 µM [rising, full curve].

As to `Cc1ccc(C(=O)NNC(=O)CSc2nnc(-c3ccncc3)n2-c2ccc(C)cc2)cc1`, the cell number change was -24.7%. In addition, the concentration at half-maximal activity (AC50) under setting [2] was 29.1 µM [falling, single point].

On to `COc1ccc(S(=O)(=O)Nc2ccccc2C(=O)NCc2cccnc2)cc1OC`, for which the cell number change was 9.21%. Turning to `CC1(C)SC(=S)N(Cc2ccc3c(c2)OCO3)C1N(O)C(=O)NC1CCCCC1` (stereo not given), the cell number change was -70.3%. Further, the half-maximal activity concentration (AC50) under setting [1] was 1.64 µM [falling, partial curve]. With `Cc1cc(C)n(-c2nc(C(=O)O)cs2)n1`, the concentration at half-maximal activity (AC50) under setting [2] is 0.731 µM [rising, single point]. For `N=C1SC(CC(=O)Nc2ccccc2[N+](=O)[O-])C(=O)N1c1ccccc1` (stereo not given), the cell number change worked out at 0.815%. Also, the AC50 under setting [1] is 0.13 µM [falling, full curve, poor fit]. Consider `CCCc1nnc(SCC(=O)N2CCCCC2C)n1CCOC` (stereo not given), for which the cell number change was 4.11%. Also, under setting [2], the AC50 is 0.0259 µM [rising, full curve, poor fit].

`O=C(Cn1ccc2ccccc2c1=O)NCCC(=O)N1CCCCC1`: the cell number change came out at 17.5%. Moreover, under setting [2], the AC50 is 29.1 µM [rising, single point]. As for `CC(C)[C@H](NC(=O)c1c(F)cccc1F)C(=O)N1CCN(c2ccc(F)cc2)CC1`, the cell number change stood at 14.4%. The concentration at half-maximal activity (AC50) under setting [2] was 6.51 µM [rising, single point]. On to `O=C(N/N=C/c1cccc(O)c1)NC1CCCCC1`, for which the cell number change was -6.5%. In addition, the concentration at half-maximal activity (AC50) under setting [2] is 3.26 µM [falling, single point].

For `O=C(N/N=C\c1c(O)ccc2ccccc12)c1cncc(Br)c1`, the cell number change is -97.6%. Besides, under setting [2], the concentration at half-maximal activity (AC50) is 20.6 µM [falling, single point].

For `COC(=O)C1=C(C)N(c2ccc(F)cc2)/C(=C/c2ccc(O)cc2)C1=O`, the cell number change is 13.4%. The concentration at half-maximal activity (AC50) under setting [2] is 29.1 µM [rising, single point]. As for `N=C1/C(=C\c2ccc(SCc3ccccc3)o2)C(=O)N=C2SC(CC(=O)N3CCOCC3)=NN12`, the cell number change came out at 13.2%. Also, under setting [2], the concentration at half-maximal activity (AC50) was 29.1 µM [rising, single point].

Turning to `C=CCNS(=O)(=O)c1ccc(OC)c(C)c1`, the cell number change is -0.364%.

Turning to `Cc1c(Cl)cccc1NC(=S)NC1CCN(Cc2ccccc2)CC1`, the cell number change is 1.2%. Moreover, the half-maximal activity concentration (AC50) under setting [2] is 0.116 µM [rising, full curve, poor fit]. Regarding `Cc1cc(Cn2nc(C(=O)NCc3cccc(C(F)(F)F)c3)cc2-c2ccccc2)on1`, the cell number change is -24.4%. In addition, under setting [2], the AC50 is 16.4 µM [falling, partial curve, poor fit]. Turning to `O=C(COc1ccc(S(=O)(=O)N2CCCC2)cc1Cl)NCc1cccnc1`, the cell number change was -1.45%. Under setting [2], the AC50 was 6.51 µM [rising, single point]. For `Cc1nn(C)c(C)c1S(=O)(=O)N1CCCC(C(=O)NCC2COc3ccccc3O2)C1` (stereo not given), the cell number change is -17.7%. Moreover, the AC50 under setting [2] is 5.8 µM [falling, partial curve, poor fit]. On to `COc1cccc(CNC(=O)COC(=O)c2cccc(S(=O)(=O)N3CCN(C(C)=O)CC3)c2)c1`, for which the cell number change amounted to 10%. Also, the AC50 under setting [2] was 2.06 µM [rising, partial curve, poor fit]. For `Cc1cc(C)cc(NC(=O)COC(=O)c2n[nH]c3ccccc23)c1`, the cell number change was -28.8%. For the same molecule, the AC50 under setting [1] was 3.66 µM [falling, single point]. In addition, the AC50 under setting [2] was 2.31 µM [falling, partial curve, poor fit]. Regarding `O=C(NCCN1CCN(C(=O)c2cccc([N+](=O)[O-])c2)CC1)C(=O)NCc1ccc(Cl)cc1`, the AC50 under setting [2] is 29.1 µM [falling, single point].

For `COc1ccc(N(CC(=O)Nc2ccccc2C(=O)NCC(C)C)S(C)(=O)=O)cc1`, the AC50 under setting [2] is 2.91 µM [rising, partial curve, poor fit]. In the case of `CCCCC(=O)Nc1ccc2c(c1)C(=O)NC2=O`, the cell number change is -7.62%. In addition, the concentration at half-maximal activity (AC50) under setting [2] was 7.31 µM [rising, partial curve, poor fit].

With `COc1ccccc1CNC(=O)COC(=O)c1cccc(S(=O)(=O)N2CCOCC2)c1`, under setting [2], the AC50 was 16.4 µM [falling, single point]. Consider `CC1(C)CC(=O)C2=C(C1)Nc1ncnn1C2c1ccccn1` (stereo not given), for which the cell number change was -4.06%. Moreover, the half-maximal activity concentration (AC50) under setting [1] was 0.731 µM [falling, full curve, poor fit]. Besides, the AC50 under setting [2] is 29.1 µM [falling, single point]. Turning to `O=C(CSCCO)Nc1cc(C(F)(F)F)ccc1Cl`, the cell number change is -1.48%. Also, the AC50 under setting [2] is 14.6 µM [rising, single point]. With `CCn1cc(CCC(=O)O)c(C)n1`, the cell number change turned out to be 74.6%. Also, under setting [1], the AC50 is 6.51 µM [falling, single point]. In addition, under setting [2], the AC50 is 6.51 µM [falling, single point].

With `CCOC(=O)CN1C(=O)SC(CC(=O)Nc2nccs2)C1=O` (stereo not given), the cell number change was 4.69%. The concentration at half-maximal activity (AC50) under setting [1] is 0.651 µM [falling, single point]. For the molecule `CCOc1ccc(S(=O)(=O)NCC(=O)OCc2nnc(-c3ccccc3)o2)cc1`, the cell number change is 14%. In the case of `O=C1CSC(c2ccccc2F)N1c1cc(Cl)ccc1O` (stereo not given), the cell number change came out at 109%. Further, the AC50 under setting [1] was 29.1 µM [rising, single point]. Also, under setting [2], the AC50 was 18.4 µM [rising, partial curve]. In the case of `Cc1ccc(C(=O)OCC(=O)N2CCCc3ccccc32)cc1C`, the cell number change was 57.2%. The AC50 under setting [1] was 14.6 µM [rising, partial curve]. The half-maximal activity concentration (AC50) under setting [2] is 0.00517 µM [falling, full curve, poor fit].
